# Measured values: PubChem BioAssay AID743255 (National Center for Advancing Translational Sciences (NCATS), 2014)
# Amino acid sequences for entries named in this document (tags omitted). A change or cut given only in a name is not applied to a line headed by its entry.
# UniProt O94782: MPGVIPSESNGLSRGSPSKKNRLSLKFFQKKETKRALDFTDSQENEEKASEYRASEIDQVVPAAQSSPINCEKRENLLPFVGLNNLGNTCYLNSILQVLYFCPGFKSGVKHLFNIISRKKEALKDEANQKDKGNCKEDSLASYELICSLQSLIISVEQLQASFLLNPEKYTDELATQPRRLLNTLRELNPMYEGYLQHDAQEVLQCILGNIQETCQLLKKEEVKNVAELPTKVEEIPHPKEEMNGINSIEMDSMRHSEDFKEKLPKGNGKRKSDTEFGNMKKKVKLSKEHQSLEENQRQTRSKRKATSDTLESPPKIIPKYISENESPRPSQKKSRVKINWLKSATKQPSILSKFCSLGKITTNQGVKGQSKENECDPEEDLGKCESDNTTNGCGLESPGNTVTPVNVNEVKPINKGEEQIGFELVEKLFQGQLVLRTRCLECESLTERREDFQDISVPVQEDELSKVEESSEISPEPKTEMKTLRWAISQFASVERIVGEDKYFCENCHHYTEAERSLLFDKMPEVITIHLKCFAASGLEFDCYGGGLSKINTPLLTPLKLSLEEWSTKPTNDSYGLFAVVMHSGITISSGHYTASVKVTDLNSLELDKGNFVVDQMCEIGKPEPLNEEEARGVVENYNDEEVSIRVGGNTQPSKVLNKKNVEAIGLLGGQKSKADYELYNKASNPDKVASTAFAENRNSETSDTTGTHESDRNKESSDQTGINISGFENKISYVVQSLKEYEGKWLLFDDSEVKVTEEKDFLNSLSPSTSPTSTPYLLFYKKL
# In all, about 390,000 compounds went through this assay and about 910 (0.23%) were called active. The inconclusive results got no clear call from the source; some entries with a clear call stand among them for comparison. The call rests on the fitted dose curve; in most records, active means well fitted inhibition curve with a large enough effect; inconclusive means small, poorly fitted or top-dose-only effect; inactive means no such curve, though single readings can be large or run the other way. Where the call is inconclusive, the potency comes from a doubtful curve fit.
# Molecular target: Ubiquitin carboxyl-terminal hydrolase 1 (Homo sapiens) (UniProt O94782)
# Experiment: Inhibitors of USP1/UAF1: Primary Screen; further: nearly all actives have a fitted effect of over 60% in size
# Conditions: recombinant USP1/UAF1, Ub-Rhodamine cleavage fluorescence; activity change, negative = inhibition: at 57.1 µM (top of the series)
# In short: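 Step one: compound is pinned into 1nM USP1/UAF1 in HEPES pH 7.8 buffer with TCEP. Step two: 15 min room-temperature incubation. Step three: Ub-Rho (150nM final) starts cleavage, tracked by fluorescence over six one-minute reads.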
# On the % scale 0 is the no-effect control and ±100 the full control effect; potency means the concentration at half of the fitted maximal effect.
SMILES,Potency,"activity change, negative = inhibition"
Cc1csc2nc(COc3ccc(NC(=O)COc4ccc(F)cc4)cc3)cc(=O)n12,inactive,–
COC(=O)c1sccc1NC(=O)Nc1ccc(C)c(C)c1,"inconclusive: 50.1 µM [inhibitor, partial curve, poor fit]",–
c1ccc(-c2nnc3sc(-c4csc5c4CCCC5)nn23)cc1,"inconclusive: 44.7 µM [inhibitor, partial curve, poor fit]",–
Cc1ccccc1Nc1nc(N)nc(COC(=O)c2cccc(S(=O)(=O)N(C)C)c2)n1,"inconclusive: 0.199 µM [inhibitor, full curve, poor fit]",–
Cc1ccc2sc(N(CCCN(C)C)C(=O)c3ccc(S(=O)(=O)N(C)C4CCCCC4)cc3)nc2c1C,inactive,–
Cc1ccnc(SCc2cc(=O)c(OC(=O)c3cc([N+](=O)[O-])ccc3Cl)co2)n1,inactive,–
COC(=O)c1ccccc1NC(=O)Nc1cccc(OCc2cc(=O)n3cccc(C)c3n2)c1,"inconclusive: 28.2 µM [inhibitor, partial curve, poor fit]",–
O=C1CN(C(=O)C2CCCCC2)C(c2ccccc2)c2cc(F)ccc2N1 (stereo unspecified),"inconclusive: 4.47 µM [inhibitor, single point]",–
Cc1sc(-c2cc3ccccc3oc2=O)nc1-c1ccc(Cl)cc1,"inconclusive: 5.62 µM [inhibitor, partial curve, poor fit]",–
COc1ccc(-c2cc(C(F)(F)F)nc(S(=O)(=O)CCC(=O)N3CCOCC3)n2)cc1,"inconclusive: 44.7 µM [inhibitor, partial curve, poor fit]",–
O=C1CC(c2ccccc2)NC(=S)N1 (stereo unspecified),"inconclusive: 0.224 µM [inhibitor, full curve, poor fit]",–
C#Cc1ccc([C@@H]2C=C(C(=O)N3CCN(Cc4ccc5c(c4)OCO5)CC3)O[C@H](OCCCCO)C2)cc1,"inconclusive: 44.7 µM [inhibitor, partial curve]",–
COc1ccc(NC(=O)c2sc3nc[nH]c(=O)c3c2C)cc1,"inconclusive: 10 µM [inhibitor, partial curve, poor fit]",–
COc1ccccc1-c1cn[nH]c1-c1ccc(OCc2ccc([N+](=O)[O-])cc2)cc1O,inactive,–
COc1ccc(-c2noc(CCCCC(=O)N3CCN(c4cc(C)ccc4C)CC3)n2)cc1,"inconclusive: 17.8 µM [inhibitor, partial curve]",–
Cc1ccc(S(=O)(=O)N2CCN(Cc3cc(=O)n4ccccc4n3)CC2)cc1C,inactive,–
COc1ccc(-c2nnc3ccc(SCC(=O)N4CCCC4)nn23)cc1,"inconclusive: 63.1 µM [inhibitor, partial curve, poor fit]",–
COc1ccc(CC(=O)Nc2ccc(-c3nc4ccccc4s3)cc2Cl)cc1,"inconclusive: 44.7 µM [inhibitor, single point]",–
Cc1cc([N+](=O)[O-])nn1CC(=O)NCc1nc2ccccc2[nH]1,"inconclusive: 5.01 µM [inhibitor, full curve, poor fit]",–
O=C1c2ccccc2C(=O)C12OC2c1cccc2ccccc12 (stereo unspecified),active: 14.1 µM,–
Cc1ccc(-c2nnc(SCC(=O)NCCC(C)C)nc2-c2ccc(C)cc2)cc1,"inconclusive: 44.7 µM [inhibitor, partial curve]",–
CC(C)NC(=O)c1cccc(Br)c1,"inconclusive: 4.47 µM [inhibitor, partial curve]",–

SMILES,Potency,"activity change, negative = inhibition"
CCSC1=C(C#N)C(c2ccc(F)cc2)CC(=O)N1 (stereo unspecified),inactive,–
CCN1CCN(C(c2cccc(Cl)c2)c2c(O)cc(C)n(CCOC)c2=O)CC1 (stereo unspecified),"inconclusive: 0.1 µM [inhibitor, full curve]",–
COC(=O)c1ccc(COc2ccccc2/C=N/Nc2cccc(C(=O)O)c2)cc1,"inconclusive: 39.8 µM [inhibitor, partial curve]",–
O=[N+]([O-])c1ccc(Cl)cc1Sc1cccc2cccnc12,inactive,–
CCn1ncc(C2=NOC(C(=O)Nc3cccc(C(C)=O)c3)C2)c1C (stereo unspecified),inactive,–
Cc1cccc(-c2nc(N)nc(N)n2)c1,"inconclusive: 3.55 µM [inhibitor, partial curve]",–
Brc1ccc(C2=Nc3cccc4cccc(c34)N2)o1,"inconclusive: 56.2 µM [inhibitor, partial curve, poor fit]",–
COc1ccc(S(=O)(=O)N2CCCCC2)cc1NC(=O)C1CC(=O)N(Cc2ccco2)C1 (stereo unspecified),"inconclusive: 44.7 µM [inhibitor, partial curve, poor fit]",–
N#C/C(=C\c1ccc(O)c(O)c1)C(=O)Nc1ccccc1,"inconclusive: 39.8 µM [inhibitor, partial curve, poor fit]",–
O=[N+]([O-])c1ccc(N2CCN(C(=S)c3cccc([N+](=O)[O-])c3)CC2)cc1,inactive,–
COCCN1C=C2C(=O)C(C)(OC(=O)C3CCCC3)C(=O)C(c3ccccc3)=C2C=C1CCCC(=O)OC (stereo unspecified),"inconclusive: 0.316 µM [inhibitor, full curve, poor fit]",–
O=C(NCCCCNC(=O)C1CCCC1)C1CCCC1,inactive,–
COc1cc(NC(=O)COc2ccc([N+](=O)[O-])cc2)ccc1NC(=O)c1ccco1,"inconclusive: 0.0891 µM [inhibitor, full curve, poor fit]",–
CC(C)NC(=S)NN=C1CCC(c2ccccc2)CC1 (stereo unspecified),"inconclusive: 35.5 µM [inhibitor, partial curve]",–
CCN(CC)C(=O)[C@H]1C[C@H](CC(=O)NC(C)(C)C)C(=O)N2CCc3c([nH]c4cc(-c5ccco5)ccc34)[C@]12C,"inconclusive: 31.6 µM [inhibitor, partial curve, poor fit]",–
CC(C)/C=N/Nc1nc2c(c(=O)n(C)c(=O)n2C)n1C,inactive,–
O=S(=O)(O)c1ccc(O)c2cc(Nc3ccccc3)ccc12,active: 12.6 µM,–
CC(C)CC(=NNC(=O)c1ccncc1)c1cc(Cl)ccc1O,active: 28.2 µM,–
CCc1ccc(C(=O)/C=C/Nc2ccc(S(=O)(=O)Nc3cnc4ccccc4n3)cc2)cc1,"inconclusive: 7.08 µM [inhibitor, single point]",–
O=C1CNC(=S)N1CCOc1ccccc1,"inconclusive: 35.5 µM [inhibitor, partial curve]",–
COc1ccc(NC(=O)Nc2ccc3c(c2)C(=O)N([C@H](C)CO)C[C@H](C)[C@@H](CN(C)S(=O)(=O)c2ccc(F)cc2)O3)cc1,–,inconclusive: -15.3% [inhibitor]
O=C(CSc1ccc2nc(-c3ccccc3)cn2n1)NCC1CCCO1 (stereo unspecified),"inconclusive: 31.6 µM [inhibitor, partial curve]",–

# Part of the list above in order of heavy-atom count, low to high:
SMILES,Potency,"activity change, negative = inhibition"
CC(C)NC(=S)NN=C1CCC(c2ccccc2)CC1 (stereo unspecified),"inconclusive: 35.5 µM [inhibitor, partial curve]",–
O=C1CN(C(=O)C2CCCCC2)C(c2ccccc2)c2cc(F)ccc2N1 (stereo unspecified),"inconclusive: 4.47 µM [inhibitor, single point]",–
COC(=O)c1ccccc1NC(=O)Nc1cccc(OCc2cc(=O)n3cccc(C)c3n2)c1,"inconclusive: 28.2 µM [inhibitor, partial curve, poor fit]",–

# Continuation:

SMILES,Potency,"activity change, negative = inhibition"
COc1cccc(-c2ncc3ccccc3c2COC(=O)c2cccs2)c1,"inconclusive: 44.7 µM [inhibitor, partial curve]",–
CC(=O)Nc1ccc(NS(=O)(=O)c2ccc3c(c2)CCCN3C(C)=O)cc1,"inconclusive: 39.8 µM [inhibitor, single point]",–
COc1cc(OC)c(S(=O)(=O)N2CCN(C(=O)c3ccco3)CC2)cc1NC(C)=O,"inconclusive: 8.91 µM [inhibitor, partial curve]",–
O=C(CSc1ncccn1)N1CCN(C(c2ccccc2)c2ccccc2)CC1,inactive,–
CCN(CC)c1ccc2cc(-c3nc4ccccc4n3C)c(=O)oc2c1,"inconclusive: 10 µM [inhibitor, partial curve]",–
COc1ccc(S(=O)(=O)NCC(c2ccco2)S(=O)(=O)c2ccc(C)cc2)cc1C (stereo unspecified),"inconclusive: 0.251 µM [inhibitor, full curve, poor fit]",–
CC(C)OCCCN1C=C2C(=O)C(C)(OC(=O)CCc3ccccc3)C(=O)C=C2C=C1c1ccc(C#N)cc1 (stereo unspecified),"inconclusive: 44.7 µM [inhibitor, partial curve, poor fit]",–
Cc1cccc(C)c1NC(=O)C1CCCN(S(=O)(=O)c2c(C)noc2/C=C/N(C)C)C1 (stereo unspecified),"inconclusive: 0.708 µM [inhibitor, full curve, poor fit]",–
CCC1(c2ccc(F)cc2)NC(=O)N(CC(=O)NC2CCCC(C)C2C)C1=O (stereo unspecified),inactive,–
C=CC(=O)NCC1OCCc2ccccc21 (stereo unspecified),inactive,–
CN(C(=O)c1ccc(NC(=O)Cc2cccc(NC(=O)C3CCCN(C(=O)C4CCC4)C3)c2)cc1)C1CCCC1 (stereo unspecified),"inconclusive: 6.31 µM [inhibitor, single point]",–
O=C(Nc1ccc(-c2nc3ccc(NC(=O)c4cccs4)cc3[nH]2)cc1)c1cccs1,"inconclusive: 22.4 µM [inhibitor, partial curve]",–
CC1(C)Cc2c(c(N3CCOCC3)nc3sc(C(=O)Nc4cccc(Cl)c4)c(N)c23)CO1,inactive,–
CCc1ccc[n+](-c2[nH]c(=O)sc2/C=N/NC([S-])=Nc2ccccc2)c1,"inconclusive: 35.5 µM [inhibitor, partial curve]",–
CCOC(=O)c1cnc(-n2nc(C)cc2C)nc1NCCc1ccccc1,"inconclusive: 35.5 µM [inhibitor, partial curve, poor fit]",–
CC(C)(C)NC(=S)N/N=C\c1ccc(-c2ccc([N+](=O)[O-])cc2)o1,inactive,–
O=C1c2ccccc2C(=O)c2[nH]c(=O)[nH]c21,active: 28.2 µM,–
CCc1cc(-c2nc(N)ncc2-c2ccc(Br)cc2)c(O)cc1OC,inactive,–
CSc1nc2ccc(S(=O)(=O)N3CCOCC3)cc2s1,inactive,–
COc1ccc(Cl)cc1NC(=O)CSc1nc2sccc2c(=O)[nH]1,inactive,–
CCCCCCCCC#Cc1nc(C)ccc1OC,"inconclusive: 10 µM [inhibitor, partial curve, poor fit]",–
Fc1ccc(CCN2CCN=C2Nc2ccccc2)cc1,"inconclusive: 3.55 µM [inhibitor, full curve, poor fit]",–
